This note sets out measurements from publication PMC12136000.

Chains of the proteins cited; added tags and fusions are not shown.
UniProt O15371: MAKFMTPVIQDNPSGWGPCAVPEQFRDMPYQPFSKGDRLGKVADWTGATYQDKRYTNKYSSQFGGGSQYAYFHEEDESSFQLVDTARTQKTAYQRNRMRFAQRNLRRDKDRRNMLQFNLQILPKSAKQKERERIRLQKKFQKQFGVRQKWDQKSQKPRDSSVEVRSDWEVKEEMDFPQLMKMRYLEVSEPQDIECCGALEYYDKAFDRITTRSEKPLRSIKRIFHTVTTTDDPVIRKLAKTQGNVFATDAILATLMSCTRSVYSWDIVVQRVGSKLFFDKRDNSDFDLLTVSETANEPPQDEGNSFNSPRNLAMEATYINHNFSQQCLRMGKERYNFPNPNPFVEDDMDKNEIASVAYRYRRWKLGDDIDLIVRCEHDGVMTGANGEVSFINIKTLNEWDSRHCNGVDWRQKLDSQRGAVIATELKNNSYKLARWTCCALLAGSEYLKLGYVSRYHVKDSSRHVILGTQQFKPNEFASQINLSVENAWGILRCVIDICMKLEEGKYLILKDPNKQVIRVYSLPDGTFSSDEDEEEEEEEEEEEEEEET
UniProt Q9Y262: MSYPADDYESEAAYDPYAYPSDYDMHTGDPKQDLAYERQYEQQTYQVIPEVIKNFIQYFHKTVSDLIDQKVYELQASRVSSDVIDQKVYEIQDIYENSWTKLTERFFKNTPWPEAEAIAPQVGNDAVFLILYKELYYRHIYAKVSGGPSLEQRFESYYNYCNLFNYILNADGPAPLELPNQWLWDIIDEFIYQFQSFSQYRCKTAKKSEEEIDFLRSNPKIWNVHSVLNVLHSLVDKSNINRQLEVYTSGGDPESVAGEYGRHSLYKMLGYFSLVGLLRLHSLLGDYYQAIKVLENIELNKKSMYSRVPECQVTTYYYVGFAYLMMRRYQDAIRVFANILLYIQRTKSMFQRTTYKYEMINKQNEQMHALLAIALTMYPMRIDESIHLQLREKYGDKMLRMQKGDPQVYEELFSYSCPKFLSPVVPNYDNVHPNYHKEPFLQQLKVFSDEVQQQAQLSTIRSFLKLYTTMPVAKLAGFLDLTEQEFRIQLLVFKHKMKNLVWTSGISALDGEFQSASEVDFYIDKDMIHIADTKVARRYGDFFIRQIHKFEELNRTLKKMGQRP
UniProt P55884: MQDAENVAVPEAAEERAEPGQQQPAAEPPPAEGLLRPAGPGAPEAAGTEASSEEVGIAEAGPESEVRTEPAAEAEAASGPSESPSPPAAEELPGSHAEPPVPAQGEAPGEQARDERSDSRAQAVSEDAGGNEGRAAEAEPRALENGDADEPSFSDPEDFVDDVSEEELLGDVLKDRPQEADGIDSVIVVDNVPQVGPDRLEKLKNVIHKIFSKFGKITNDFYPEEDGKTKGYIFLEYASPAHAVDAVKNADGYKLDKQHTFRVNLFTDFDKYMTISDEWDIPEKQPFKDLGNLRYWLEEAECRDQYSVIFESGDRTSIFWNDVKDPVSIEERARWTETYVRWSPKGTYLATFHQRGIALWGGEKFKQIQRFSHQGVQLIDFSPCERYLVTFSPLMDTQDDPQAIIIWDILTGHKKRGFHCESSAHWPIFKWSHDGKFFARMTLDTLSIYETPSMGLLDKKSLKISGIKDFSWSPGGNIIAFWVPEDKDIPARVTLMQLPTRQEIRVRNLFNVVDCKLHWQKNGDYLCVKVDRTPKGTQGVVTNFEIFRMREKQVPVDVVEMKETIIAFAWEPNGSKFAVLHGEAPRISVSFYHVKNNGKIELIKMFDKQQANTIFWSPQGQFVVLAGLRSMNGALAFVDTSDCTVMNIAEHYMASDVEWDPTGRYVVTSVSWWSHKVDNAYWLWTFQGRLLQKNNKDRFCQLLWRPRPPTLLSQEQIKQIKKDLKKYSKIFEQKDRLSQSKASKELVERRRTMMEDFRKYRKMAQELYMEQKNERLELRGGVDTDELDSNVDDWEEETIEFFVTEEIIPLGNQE
UniProt Q04637: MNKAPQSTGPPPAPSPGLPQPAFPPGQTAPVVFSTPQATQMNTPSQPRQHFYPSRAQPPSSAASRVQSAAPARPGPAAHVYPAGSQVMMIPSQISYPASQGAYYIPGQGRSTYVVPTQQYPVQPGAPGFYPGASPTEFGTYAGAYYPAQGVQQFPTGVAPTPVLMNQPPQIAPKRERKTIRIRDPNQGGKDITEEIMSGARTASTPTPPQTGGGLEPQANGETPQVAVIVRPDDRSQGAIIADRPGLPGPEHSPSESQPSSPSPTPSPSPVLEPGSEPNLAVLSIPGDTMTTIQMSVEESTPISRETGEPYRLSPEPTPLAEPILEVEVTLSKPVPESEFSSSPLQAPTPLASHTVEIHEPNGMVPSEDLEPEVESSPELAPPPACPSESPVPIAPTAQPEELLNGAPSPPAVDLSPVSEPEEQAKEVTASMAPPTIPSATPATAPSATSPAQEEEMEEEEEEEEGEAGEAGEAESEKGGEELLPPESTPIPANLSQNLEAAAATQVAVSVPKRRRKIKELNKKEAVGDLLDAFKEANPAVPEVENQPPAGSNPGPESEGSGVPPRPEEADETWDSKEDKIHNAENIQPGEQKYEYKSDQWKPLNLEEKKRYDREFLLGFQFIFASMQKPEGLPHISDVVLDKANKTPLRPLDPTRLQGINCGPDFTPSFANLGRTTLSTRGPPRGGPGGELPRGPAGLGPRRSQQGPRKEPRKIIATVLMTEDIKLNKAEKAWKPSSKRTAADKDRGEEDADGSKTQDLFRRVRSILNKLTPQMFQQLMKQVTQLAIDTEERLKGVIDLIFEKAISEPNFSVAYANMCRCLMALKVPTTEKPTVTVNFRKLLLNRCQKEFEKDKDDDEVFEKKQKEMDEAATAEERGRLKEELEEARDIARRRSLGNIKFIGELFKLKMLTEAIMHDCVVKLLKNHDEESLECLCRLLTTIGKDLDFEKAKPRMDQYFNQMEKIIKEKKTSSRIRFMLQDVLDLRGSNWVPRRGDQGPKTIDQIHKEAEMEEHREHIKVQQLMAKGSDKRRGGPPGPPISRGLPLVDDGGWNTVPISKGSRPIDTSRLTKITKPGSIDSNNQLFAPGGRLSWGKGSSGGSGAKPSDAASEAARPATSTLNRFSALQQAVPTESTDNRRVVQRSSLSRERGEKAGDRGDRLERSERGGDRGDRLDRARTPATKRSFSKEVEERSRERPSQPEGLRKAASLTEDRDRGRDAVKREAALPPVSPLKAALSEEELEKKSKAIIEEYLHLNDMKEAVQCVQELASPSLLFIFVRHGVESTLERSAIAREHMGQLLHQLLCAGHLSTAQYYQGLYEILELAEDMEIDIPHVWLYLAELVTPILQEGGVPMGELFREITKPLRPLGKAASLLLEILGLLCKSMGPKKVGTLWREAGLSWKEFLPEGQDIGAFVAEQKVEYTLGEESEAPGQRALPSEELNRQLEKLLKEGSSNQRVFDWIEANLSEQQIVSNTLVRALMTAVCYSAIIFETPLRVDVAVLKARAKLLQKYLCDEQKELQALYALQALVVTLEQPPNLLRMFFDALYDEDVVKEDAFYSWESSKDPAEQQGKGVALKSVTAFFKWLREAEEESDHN

Results are given in words; binding and its absence hold for the method and conditions named. In cells and extracts the contact can be indirect. Some results given as binding are weak or reduced against the parent protein; the word gives no strength.

This experiment addresses FLAG-tagged eIF3d (wild-type eIF3D-FLAG) (UniProt O15371). The experiment in a line: co-IP; HeLa lysate (50 mM Tris pH7.5, 150 mM NaCl, 1% Triton-X, Benzonase) on anti-flag-beads for 2 h at 4 °C, three washes, western blot; cells treated for 2 h with DMSO or with 3 µM of the CK2 inhibitor CX-5011 before lysis.
As to eIF3l (from UniProt Q9Y262 1-564), the binding result was “binds”.
In the case of eIF3b (from UniProt P55884 1-814), the binding result was “binds”.
eIF4G1 (from UniProt Q04637 1-1599): the binding result is given as “binds”.
